The values that follow come from PubChem BioAssay AID445 (National Center for Advancing Translational Sciences (NCATS), 2006).

Molecules are shown by their SMILES. Some of the results follow. These are further read-outs of the screen, such as a control signal, another cell line or another target. No call is given for them. Compounds called inactive in the main read-out are mostly missing here. The note in brackets gives the kind of curve behind each potency; many fits are weak.

This assay in a line: IkB Signaling. The note with it: ABC-DLBCL IkBa-CBG/CBR dual luciferase ratio (green luciferase fused to IkBa over red control in OCI-Ly3 lymphoma cells), 4 h. In short, it runs like this:
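In this assay, an IκBα–CBG68 fusion accumulates when IKK-driven degradation is blocked; native CBR normalizes for cell number. OCI-Ly3 cells were treated 4 h with compound and doxycycline, then green and red light read after Chroma-Glo addition.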

Setting [1] is: measured here: IkB-luc green channel.
Where [2] appears, read: measured here: control luc red channel.
Where [3] appears, read: measured here: control luc red channel unless noted.

Broadly, the AC50 is the midpoint of the concentration-response curve, whichever way the signal moves. Regarding `CCOc1ccc(C(=O)CCN2CCCCCC2)cc1`, the AC50 runs as follows: under setting [1], 25.1 µM [falling, single point]; under setting [2], 7.94 µM [falling, full curve].

For `Cc1ccc(S(=O)(=O)Nc2cc3c(cc2NCc2ccccc2)n(C)c(=O)n3C)c(C)c1`, the AC50 under setting [3] was 31.6 µM [falling, single point].

As for `O=C(CCC1N=C2c3ccccc3N=C(SCc3ccc(F)cc3)N2C1=O)NCc1ccc(F)cc1` (stereo not drawn), the AC50 under setting [3] was 7.94 µM [falling, partial curve].

In the case of `COc1ccc(-c2cc3nc(C)c(CCC(=O)Nc4ccccc4C(C)=O)c(C)n3n2)c(OC)c1`, the AC50 under setting [3] is 0.0501 µM [falling, full curve].

As for `Cc1cccc(Cn2c(SCc3ccc(C(=O)NCCc4ccccc4)cc3)nc3ccncc32)c1`, the AC50 under setting [3] was 7.94 µM [falling, partial curve].

For the molecule `CCc1cccc(C)c1NC(=O)Cn1ccn(-c2cccc(OC)c2)c(=O)c1=O`, under setting [3], the AC50 is 31.6 µM [falling, single point].

For `O=C(CSCc1cccc(F)c1)NCc1ccccc1`, the half-maximal activity concentration (AC50) under setting [3] was 0.0794 µM [rising, full curve].

For the molecule `CCCC1=Nc2cc(C(=O)NCc3ccc(OC)cc3)ccc2Sc2ccc(C)cc21`, under setting [3], the concentration at half-maximal activity (AC50) was 7.94 µM [falling, partial curve].

For `Cc1ccc(S(=O)(=O)Nc2ccccc2C(=O)c2ccc(C)c(C)c2)cc1`, under setting [3], the AC50 was 3.16 µM [falling, partial curve].

For `CCOc1ccc(-c2nc(CSCC(=O)N3CCN(c4ccc(F)cc4)CC3)c(C)o2)cc1`, the AC50 under setting [3] is 39.8 µM [falling, single point].

Regarding `O=C1NC(Nc2nc3ccccc3s2)(C(F)(F)F)C(=O)N1C1CCCCC1` (stereo not drawn), the AC50 under setting [3] is 7.94 µM [falling, partial curve].

As to `CCOc1ccc(C(=O)Nc2ccc3nc(SCCOc4ccccc4)sc3c2)cc1`, the AC50 under setting [3] is 0.1 µM [falling, full curve].

`CC(=O)c1cccc(NC(=O)Cn2nc(C)n3cccc3c2=O)c1`: the AC50 under setting [3] was 10 µM [falling, partial curve].

As for `CC(=O)N1CCCc2cc(S(=O)(=O)N3CCC(C(=O)Nc4cccc(Cl)c4C)CC3)ccc21`, under setting [3], the AC50 is 0.2 µM [falling, full curve, poor fit].

On to `Cc1cc2ccccc2n1-c1ccc(C(=O)N2CCC(C(=O)NCc3ccc(Cl)cc3)CC2)s1`, for which the AC50 under setting [3] is 3.98 µM [falling, full curve].

Regarding `O=C(CSc1nnc(-c2cccs2)o1)Oc1ccccc1`, the AC50 under setting [3] is 25.1 µM [falling, single point].

As for `CC(=O)c1sc(NC(=O)C2(F)C(F)(F)C(F)(F)C(F)(F)C(F)(F)C2(F)F)nc1C`, the AC50 under setting [3] was 1 µM [falling, full curve, poor fit].

Turning to `O=C(c1cccnc1)N1CCN(S(=O)(=O)c2ccc(S(=O)(=O)N3CCCC3)cc2)CC1`, under setting [3], the half-maximal activity concentration (AC50) was 10 nM [rising, full curve, poor fit] [measured here: IkB-luc green channel].

As for `COc1ccc2oc(=O)c(C(=O)NCCc3c(C)[nH]c4c(C)cccc34)cc2c1`, the AC50 under setting [3] is 15.8 µM [falling, single point].

Regarding `COC(=O)c1cc(NC(=O)CCS(=O)(=O)c2cc(Br)cc3c2N(C(=O)C2CC2)CC3)cc(C(=O)OC)c1`, the AC50 under setting [3] was 39.8 µM [falling, single point].

`CCOc1cc2[nH]c(=O)n(CCC(=O)N3CCN(c4cccc(Cl)c4)CC3)c(=O)c2cc1OCC`: the half-maximal activity concentration (AC50) under setting [3] is 5.01 µM [rising, partial curve].

`CCOc1ccc(-c2csc3ncnc(Nc4cccc(O)c4)c23)cc1`: under setting [3], the AC50 was 6.31 µM [falling, full curve].

Consider `Cc1ccccc1C(=O)Nc1ccc(NC(=O)c2cccs2)cc1`, for which, under setting [3], the AC50 is 15.8 µM [falling, partial curve].

On to `CC(=O)N1CCCc2cc(S(=O)(=O)N3CCC(C(=O)NCc4ccc(F)cc4)CC3)ccc21`, for which, under setting [3], the AC50 was 0.2 µM [falling, partial curve, poor fit].

Regarding `CCN1c2ccccc2NC2N=C(OC)C(c3ccccc3)C21` (stereo not drawn), under setting [3], the AC50 is 7.94 µM [falling, partial curve].

As for `COc1ccccc1N1CCN(C(=O)C2CCN(S(=O)(=O)c3cccc4nonc34)CC2)CC1`, the AC50 under setting [3] was 15.8 µM [falling, single point].

For the molecule `CCOC(=O)c1c(C)n(-c2ccccc2)c2ccc(OC(=O)c3ccccc3Cl)cc12`, the AC50 under setting [3] is 0.794 µM [rising, full curve].

For `COc1ccc(CC(=O)Nc2cccc(-c3nnc(-c4ccc(C)cc4)o3)c2)cc1OC`, the AC50 under setting [3] is 1 µM [falling, full curve].

Consider `CC(C)COc1ccc(C(=O)NCC2OCCc3ccccc32)cc1` (stereo not drawn), for which, under setting [3], the AC50 is 20 µM [falling, single point].

For `CCOc1ccc(CCNC(=O)C2CCCN(c3nnc(C)c4c(C)n(-c5ccccc5)nc34)C2)cc1` (stereo not drawn), under setting [3], the AC50 is 12.6 µM [falling, partial curve].

In the case of `NC(=O)c1c(NC(=O)c2noc3c2CCCC3)sc2c1CCCC2`, the AC50 is, setting by setting: under setting [1], 31.6 µM [rising, partial curve]; under setting [2], 0.631 µM [rising, partial curve].

In the case of `CC(=O)N1c2c(cc(Br)cc2S(=O)(=O)N2CCN(c3ccccn3)CC2)CC1C` (stereo not drawn), the AC50 under setting [3] is 20 µM [falling, partial curve].

Consider `CCc1ccccc1Nc1nn2c(=O)c3ccc(C(=O)NCCc4ccccc4)cc3nc2s1`, for which, under setting [3], the AC50 is 2.51 µM [falling, full curve, poor fit].

As to `Cc1cccc(C(=O)NC2(C(F)(F)F)N=C(c3ccccc3)N(Cc3ccccc3)C2=O)c1` (stereo not drawn), under setting [3], the concentration at half-maximal activity (AC50) was 10 µM [falling, partial curve].

Consider `O=C(CSc1nc2ccccc2n1CC(=O)Nc1ccc(F)cc1F)Nc1ccc(F)cc1`, for which, under setting [3], the AC50 was 2.51 µM [falling, full curve].

For `COc1ccc(-n2c(SCc3nc(-c4ccc(C)cc4)no3)nnc2-c2ccncc2)cc1`, under setting [3], the AC50 was 31.6 µM [falling, single point].

Take `CCOc1ccc2c(c1)c(=O)c(S(=O)(=O)c1ccc(C)cc1)cn2CC(=O)Nc1ccc(C)cc1`: the AC50 under setting [3] was 15.8 µM [falling, single point].

For `CCn1c(=O)c2cc(C(=O)NCCc3cccc(C)c3)sc2c2ccccc21`, under setting [3], the AC50 was 0.794 µM [falling, full curve, poor fit].

In the case of `O=C(Nc1ccccc1)c1ccc2nc(-c3ccco3)c(-c3ccco3)nc2c1`, the concentration at half-maximal activity (AC50) under setting [3] was 15.8 µM [falling, partial curve].

As to `CC(=O)c1ccc(NC(=O)c2cccc(NC(=O)N3CCSc4ncccc43)c2)cc1`, the AC50 under setting [3] was 1 µM [falling, full curve].

On to `CCOC(=O)c1cnc(-n2nc(C)cc2C)nc1NCc1ccccc1`, for which the AC50 under setting [3] was 25.1 µM [falling, partial curve].

`CCOCCCNC(=O)c1c(NC(=O)Cc2coc3c(C)c(C)ccc23)sc2c1CCC2`: under setting [3], the AC50 is 0.501 µM [falling, full curve].

Consider `Cc1onc(-c2ccccc2Cl)c1C(=O)N1CCc2ccccc21`, for which the AC50 under setting [3] is 15.8 µM [falling, partial curve].

For `COC(=O)c1cc(C)nc2c1c(=O)nc(SCc1cc(C)ccc1C)n2C1CC1`, under setting [3], the AC50 was 39.8 µM [falling, single point].

On to `CCCN(Cc1cc2cc(C)ccc2[nH]c1=O)C(=O)c1cccc(Cl)c1`, for which the AC50 under setting [3] was 25.1 µM [falling, single point].

`COc1ccccc1Nc1nnc(SCC(=O)N2CCCC2=O)s1`: the concentration at half-maximal activity (AC50) under setting [3] is 5.01 µM [falling, partial curve].

Regarding `Cc1ccc(-c2nnn(CC(=O)N(Cc3ccco3)C(C(=O)NC(C)(C)C)c3cccs3)n2)o1` (stereo not drawn), the AC50 under setting [3] is 12.6 µM [falling, partial curve].

With `Cc1c(Cl)cccc1NC(=O)N1CCN(Cc2cc(=O)n3nc(-c4ccccc4F)sc3n2)CC1`, under setting [3], the AC50 was 20 µM [falling, single point].

With `O=C(Nc1ccc2ccccc2c1)N1CCN(c2ncccc2C(F)(F)F)CC1`, under setting [3], the AC50 is 39.8 µM [falling, single point].

For `COc1ccc(NS(=O)(=O)c2ccc3c(c2)CCN3C(=O)C2CC2)cc1OC`, under setting [3], the AC50 is 3.98 µM [rising, partial curve].

For `COc1ccccc1C(=O)NCCn1cc(SCC(=O)NCc2ccco2)c2ccccc21`, the AC50 under setting [3] was 12.6 µM [falling, partial curve].

Take `CC1CN(c2oc(COc3ccc(Cl)cc3Cl)nc2C#N)CC(C)O1` (stereo not drawn): under setting [3], the AC50 was 31.6 µM [falling, single point].

For the molecule `CCC(C)NC(=O)Cn1ncc2c(C)n(Cc3ccc(F)cc3)c(C)c2c1=O` (stereo not drawn), under setting [3], the AC50 was 3.98 µM [falling, partial curve].

As to `COC(=O)c1ccc(Cn2c(=O)cc(C)c3c(C)nn(C)c32)cc1`, under setting [3], the AC50 is 15.8 µM [falling, single point].

Consider `Cc1oc(C)c2c(=O)ccc3c(c12)OC(N)=C(C#N)C3c1ccccc1` (stereo not drawn), for which the concentration at half-maximal activity (AC50) under setting [3] is 31.6 µM [falling, single point].

With `CCn1cc(C(=O)N2CCN(c3ccccc3)CC2)c(=O)c2cc(S(=O)(=O)N(C)C3CCCCC3)ccc21`, under setting [3], the AC50 is 20 µM [falling, partial curve].

For `CC(=O)CSc1nc(-c2ccccc2)[nH]c1S(=O)(=O)c1ccc(C)cc1`, the AC50 under setting [3] was 25.1 µM [falling, single point].

On to `CCOc1ccc(Sc2cc(C(=O)NCc3ccc(F)cc3)c3ccccc3n2)cc1`, for which the AC50 under setting [3] is 2.51 µM [falling, partial curve].

With `O=C(CN1C(=O)CCSc2ccc(S(=O)(=O)N3CCCC3)cc21)Nc1cccc(Cl)c1`, under setting [3], the AC50 is 15.8 µM [falling, partial curve].

With `Cc1cc(C)n2nc(CNC(=O)c3cccc(Cl)c3)nc2n1`, the AC50 under setting [3] was 0.794 µM [rising, partial curve, poor fit].

Take `CSc1ccc(CCNC(=O)C(C)n2nc(C)c3c(C)n(-c4ccccc4)nc3c2=O)cc1` (stereo not drawn): the AC50 under setting [3] is 0.01 µM [falling, full curve, poor fit].
